# Values of other authors as cited in patent US20150105377A1, “Methods and Compositions for RAF Kinase Mediated Diseases” (ARIAD Pharmaceuticals, Inc., priority 2012, published 2015).
# At least one compound was matched to its structure with a doubt left.
# Test system: metastatic melanoma carrying the V600E mutation
# Conditions: patients with metastatic melanoma carrying the V600E mutation; cited from earlier work
structure (smiles),measurement,value
CCCS(=O)(=O)Nc1ccc(F)c(C(=O)c2c[nH]c3ncc(-c4ccc(Cl)cc4)cc23)c1F [vemurafenib],"partial or complete responses, share of patients",80%
